From PubChem BioAssay AID1347426 (Functional Genomics Laboratory (NCATS/FGL), 2020)
Among all 31,000 sequences or so, about 1,400 (4.5%) were called active.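 The calls were made as follows: active = median seed-adjusted z-score above 1 or below -1; inactive = the rest.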 Some of the results follow.

test: Novel Modifiers of Survival Motor Neuron (SMN) Protein: Gene Identification via Genome-wide siRNA Screen; details: HEK293T SMN2-luciferase reporter, siRNA knockdown, 72 h; actives lie on both sides;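 also: luminescence tracks full-length SMN protein made from the SMN2 reporter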
How it was run: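 Each of three siRNAs per gene is reverse-transfected (1 pmol) into reporter HEK293T cells whose luciferase output tracks SMN protein level. After 72 h culture, ONE-Glo luminescence is control-normalized, log10-transformed and MAD-standardized; Common Seed Analysis deprioritizes seed-driven hits.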

Sequence	median seed-adjusted z-score
GACUCGCUAUGACAGUGGATT against DNAJC7	inactive: 0.268
GAAUCCCAGUGGUGAGACATT against ABHD4	inactive: -0.054
ACAACUAUGGGAAAACAUUTT against CHAT	inactive: -0.109
GUCUUAUGAUUACAAUGAATT against ZNF248	inactive: -0.0486
CGACUGCAUCAACCAGAUATT against EXTL1	inactive: 0
GCAUUGCCGUUGAUCGGUATT against GPR65	inactive: -0.766
CUCUGGUACUUGAGUAUAATT against B3GALT1	inactive: -0.0555
GAAACAGUGCUGAAGCCUUTT against RYBP	inactive: 0.831
GCCCUUCUAAGACCCACGATT against KLK12	inactive: 0.243
GUUGUGAAGUUAUCCGAGATT against PPIL4	inactive: 0.00225
GAGCAUUCAUUUACUCGAATT against HERC1	inactive: 0.168
GGAGACGAUUGGGAAGAUATT against ZNF622	inactive: -0.462
GAGUAUAUAAGGAAGUAAATT against ATP5F1	inactive: -0.323
GAACUUAAUGGAUGCACCATT against SPINK1	inactive: 0.292
AGAAGUUAAUGGACUGUUUTT against RBM38	inactive: 0.0358
GCUACAGGCUCGCAUCGAATT against EVPL	inactive: -0.146
GGACAUGAGGAAUGAGUUATT against FOXR2	inactive: 0.593
AGUGGAUUGUAGACAUGGATT against UBE2W	inactive: -0.655
GGCUGAACGUGCUUGCAAATT against OGDH	inactive: 0.253
GAAGCAGACUAAACGAGCUTT against SYT13	inactive: 0.275
GGAAGGUUCUGAAUAUAGATT against ARHGDIB	inactive: -0.549
GCCGUAAUGUUUGUAUAGATT against ADAMTS16	inactive: -0.133

Sequence	median seed-adjusted z-score
CGCUUAAGCCUUCCAACAATT against POLR2A	active: -3.81
GUGUUUUUGUAGUUACCUATT against TSEN34	inactive: 0.918
AACUUAACCUUAUGGAUUUTT against LAMB3	inactive: -0.0106
CCUUUGAGAUCGAGCGUGATT against AANAT	inactive: -0.168
GCUUAAAUACUUACACCAATT against CHST9	inactive: 0.252
GGAUGCUGGUCUCUAAGGATT against DTX3	inactive: 0.227
CCUGGAGACUAUUACUUGATT against EXDL2	inactive: -0.0717
GGAUGGUAGUGUCUGACUUTT against MGLL	inactive: 0.288
GUGUUUGCGGGAACGGUUATT against TFAP2E	inactive: 0.243
ACUUGUUCACAUACAGAAATT against FABP7	inactive: 0.562
CCACCGUCGAUGAUCGCAATT against CCND2	inactive: -0.819
GGACCGAGUGACUACUAUATT against CDKL1	inactive: -0.28
ACCUGGAUCUCUCCCACAATT against PODNL1	inactive: -0.448
GGAAAAGAAUGUAUAAACUTT against SPTLC1	inactive: 0.0941
CCCUAAUCGUCUUCUCUAATT against CPT1C	inactive: -0.458
GAAGAACACGUAUGAUGUUTT against DLG4	inactive: -0.498
GGACCUCUCAAGUUACCCATT against KIRREL3	inactive: -0.206
GAUUAUUGUGGACACCUAUTT against MAT1A	inactive: 0.501
GGGCUGUGAUCUUGUCGAATT against AGMAT	inactive: -0.0269
CUCUACCCGUGCUAUAUAATT against TIGD1	inactive: 0.224
GGGAGCAUCUCAACAAGCATT against ZNF319	inactive: 0.256
GAGAAAAUCUAUAUCCGGATT against NR2C2	inactive: -0.498

Sequence	median seed-adjusted z-score
CCGUACAGGCAGCAAUUAATT against DNA2	inactive: 0.0284
AGUGGAUAGCCUCAAGAAATT against SDPR	inactive: -0.0738
GGAACAAGCAAGUUGUAGATT against CACHD1	inactive: 0.119
GGCAUCAUGUACUACCUAATT against SLC6A9	inactive: 0.241
CCUCGUUCAGAAUACAUCATT against TPP2	inactive: -0.562
AGGCAGACCGAUAAAAAGATT against PTPN18	inactive: -0.206
CAACAUCUACAAUCUCUAUTT against CTSA	inactive: 0.0897
GGAGUAACCUGAAUCAUCUTT against MTCH1	inactive: 0
GUAUCAAGCACGAUAUAUATT against RIPK2	inactive: 0.176
CCAUUGAAGCUUGAGAGAATT against ZNF286A	inactive: 0.0368
GAAUCAACAUGGUAGAAGATT against KARS	inactive: -0.152
GAAGGCCUCUGAUGACUAUTT against TSSK4	inactive: -0.162
AGACAUAUAUCAUUGAUCATT against ITFG2	inactive: 0.165
ACAUGAACACUGAGGUGGATT against FOXN4	inactive: 0.15
GUACCAUUGUGUGUGCUUATT against DLK2	inactive: -0.695
CCCUCAAAGCUAUAGCUCUTT against ESRRG	inactive: -0.681
CAACCACGAUCUGAAGUUUTT against FGL2	inactive: 0
GCAUCGCAAGAGCUGCAAATT against DPYD	inactive: -0.112
GGAAGGAUUUGACCGAAAATT against PCSK2	inactive: -0.704
GAAUUGGAAGAAGAUAUCATT against RHOBTB3	inactive: 0.256
GGAUGUGAACGGGCACAUUTT against CDC42BPG	inactive: 0.153
GCUCAGUGGUUGUAGCAGATT against GABRA1	inactive: -0.405

6 entries drawn at random from the list so far:
Sequence	median seed-adjusted z-score
AGGCAGACCGAUAAAAAGATT against PTPN18	inactive: -0.206
GGCAUCAUGUACUACCUAATT against SLC6A9	inactive: 0.241
GGAUGUGAACGGGCACAUUTT against CDC42BPG	inactive: 0.153
GUAUCAAGCACGAUAUAUATT against RIPK2	inactive: 0.176
CAACCACGAUCUGAAGUUUTT against FGL2	inactive: 0
GGAACAAGCAAGUUGUAGATT against CACHD1	inactive: 0.119

Next part.

Sequence	median seed-adjusted z-score
GAGCGAGUCUACAAGUGUATT against REST	inactive: 0.416
GCAAAAGGCGAGUACAAGATT against SH3BP5	inactive: -0.707
AGCCGGUGUUCAUCUCCAATT against SP8	inactive: -0.215
GGCCUACUGUGGAAUUGGATT against TTC3	active: -1.17
CCAAGGCUCUCACACUUAUTT against PGLYRP3	inactive: -0.671
CCACCCUUGUGGACAACCUTT against NPFFR1	inactive: -0.613
AGGGAGGUGUUUAACGGCATT against HMOX1	inactive: 0.45
GCAAAGCUGCUAAACCGUATT against POFUT1	inactive: 0
CCUCGACCUGGUCACUUUATT against TRMU	inactive: 0.0312
GAUUCAACGAUGUUACGCATT against RG9MTD2	inactive: -0.599
GAAACAAACUUAUAGUGAUTT against WBP5	inactive: 0.452
AGGAGCCCGUUGACACUGATT against SOLH	inactive: -0.791
CAUCAGAUUUUGCGAAGAATT against SORT1	inactive: -0.43
GGUGGUAUCUGGGUCUGAATT against FGF13	inactive: 0.875
CGAUUAUUAGUAGAGUUCATT against PPME1	inactive: 0.342
GGUUAUUUCCAGGCAUAUATT against MCOLN2	inactive: -0.0234
GUACCUUGAGAAGAAAUUUTT against ACCN1	inactive: -0.325
CAAUUCCUCCGUCCGCUAATT against IDH3G	inactive: -0.426
GAGUCUCCGUUUGUCGCCATT against FKBP9L	inactive: 0.666
GGAGAAGUAUUACUACGAUTT against MYCBP2	inactive: 0
GGAAUCCACAAAUACCAAATT against CATSPER2	inactive: -0.653
CUGUGGGAGUUAUUGUCAATT against CDH13	inactive: 0

Sequence	median seed-adjusted z-score
CGGAAGCAGUUCCAACUUUTT against AKAP8	inactive: -0.252
UCAUGAACCUGAUCUGUGATT against RDH5	inactive: 0.305
GGUCACCAGUGGGUCAUAATT against DPP4	inactive: 0.0394
GCAACACCAUCGUCUGUGATT against P2RY13	inactive: -0.0427
GGAUAUCCUGCUAGAAGAATT against GALNT12	inactive: 0.188
CCCUCUCAGUACUACGCUATT against ZMYND10	inactive: 0.255
GAAGUCAAGUGAAACGAAUTT against SAMD7	inactive: 0.161
GGCAAUCACUGGUUCGUCUTT against GPR42	inactive: -0.0972
ACAUCAAGGAGUAUUUCUATT against CCL5	inactive: 0.11
CGAUCUCAUAAACUUCGUATT against TJP1	inactive: 0.0302
CUCCUACAGUGCUAUCAGATT against ENPP2	inactive: -0.305
UGAUCGAAGUGACCCUUCATT against SDR9C7	inactive: 0
CAGUCGCUUCCAAACUCUATT against HOXD8	inactive: -0.883
GGAUGAAGUAUUCGACUUATT against SNX13	inactive: 0.253
GGGCUAACUUGGAUUCAUATT against NUP88	inactive: 0.709
ACCCUAUGUUGAACAAGAATT against ISYNA1	inactive: 0
GAACUAUACUUGUCAUGCATT against IL1R1	inactive: 0.135
GCAUGUAGCUGCAAUACAATT against SLC9A11	inactive: -0.12
CAAGCACAUUAUACGUAUATT against SLC9A6	inactive: -0.0831

Copied from the listing (2 entries):
Sequence	median seed-adjusted z-score
GGAAUCCACAAAUACCAAATT against CATSPER2	inactive: -0.653
CUGUGGGAGUUAUUGUCAATT against CDH13	inactive: 0
